According to the supplement of paper PMC10849652:
The list shows a part of the results.

Protein sequences, listed by entry. Tags and fused reporters are not part of them. Lines headed by an entry give the natural chain unless they say otherwise; changes in a name come on top.
UniProt O43826: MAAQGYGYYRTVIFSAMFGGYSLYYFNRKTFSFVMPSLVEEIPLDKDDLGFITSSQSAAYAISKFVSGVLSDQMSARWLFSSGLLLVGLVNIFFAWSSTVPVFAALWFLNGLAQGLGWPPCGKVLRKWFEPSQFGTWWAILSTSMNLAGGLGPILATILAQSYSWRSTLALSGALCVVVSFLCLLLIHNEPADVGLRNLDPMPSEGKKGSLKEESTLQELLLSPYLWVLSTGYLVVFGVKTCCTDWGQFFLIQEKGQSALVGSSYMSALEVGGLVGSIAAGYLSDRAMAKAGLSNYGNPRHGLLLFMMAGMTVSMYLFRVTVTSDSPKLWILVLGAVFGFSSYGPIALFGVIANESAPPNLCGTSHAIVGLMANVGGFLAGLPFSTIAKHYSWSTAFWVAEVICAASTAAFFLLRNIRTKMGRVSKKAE
UniProt Q9BWU0: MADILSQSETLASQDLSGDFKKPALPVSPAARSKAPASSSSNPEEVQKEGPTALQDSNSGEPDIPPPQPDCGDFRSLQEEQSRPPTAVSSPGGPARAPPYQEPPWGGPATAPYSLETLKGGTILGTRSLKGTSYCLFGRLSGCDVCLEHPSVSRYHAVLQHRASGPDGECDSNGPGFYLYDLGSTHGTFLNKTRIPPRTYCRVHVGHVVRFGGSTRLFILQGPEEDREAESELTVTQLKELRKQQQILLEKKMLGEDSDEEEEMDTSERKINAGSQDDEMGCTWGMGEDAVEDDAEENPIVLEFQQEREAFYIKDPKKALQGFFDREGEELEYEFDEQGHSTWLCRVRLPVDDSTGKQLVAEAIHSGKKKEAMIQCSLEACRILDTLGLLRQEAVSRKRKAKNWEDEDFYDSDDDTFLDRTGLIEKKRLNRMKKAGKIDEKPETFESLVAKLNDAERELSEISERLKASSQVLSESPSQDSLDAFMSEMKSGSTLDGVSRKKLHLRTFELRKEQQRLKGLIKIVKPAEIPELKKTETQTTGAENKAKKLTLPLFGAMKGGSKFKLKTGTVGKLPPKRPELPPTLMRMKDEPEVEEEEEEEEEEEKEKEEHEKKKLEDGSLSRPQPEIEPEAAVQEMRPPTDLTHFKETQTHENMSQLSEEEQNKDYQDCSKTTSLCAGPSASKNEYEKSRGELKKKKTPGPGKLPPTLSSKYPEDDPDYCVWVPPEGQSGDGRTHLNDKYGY
UniProt O43808: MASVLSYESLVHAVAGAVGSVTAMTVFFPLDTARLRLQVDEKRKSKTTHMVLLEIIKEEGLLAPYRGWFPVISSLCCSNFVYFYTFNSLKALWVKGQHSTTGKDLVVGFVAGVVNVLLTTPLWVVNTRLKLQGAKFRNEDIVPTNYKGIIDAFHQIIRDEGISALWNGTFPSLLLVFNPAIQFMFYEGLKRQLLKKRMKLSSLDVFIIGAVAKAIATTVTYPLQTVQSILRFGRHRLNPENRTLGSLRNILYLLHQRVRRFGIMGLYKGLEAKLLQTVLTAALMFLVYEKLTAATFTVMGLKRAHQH
UniProt Q70HW3: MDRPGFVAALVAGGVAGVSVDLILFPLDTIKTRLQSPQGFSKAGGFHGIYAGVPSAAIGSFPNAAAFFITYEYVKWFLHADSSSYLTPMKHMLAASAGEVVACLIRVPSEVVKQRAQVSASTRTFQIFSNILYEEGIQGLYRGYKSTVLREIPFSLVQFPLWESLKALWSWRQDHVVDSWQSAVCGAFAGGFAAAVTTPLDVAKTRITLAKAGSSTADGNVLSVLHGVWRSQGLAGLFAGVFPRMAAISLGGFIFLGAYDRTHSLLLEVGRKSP
UniProt P12236: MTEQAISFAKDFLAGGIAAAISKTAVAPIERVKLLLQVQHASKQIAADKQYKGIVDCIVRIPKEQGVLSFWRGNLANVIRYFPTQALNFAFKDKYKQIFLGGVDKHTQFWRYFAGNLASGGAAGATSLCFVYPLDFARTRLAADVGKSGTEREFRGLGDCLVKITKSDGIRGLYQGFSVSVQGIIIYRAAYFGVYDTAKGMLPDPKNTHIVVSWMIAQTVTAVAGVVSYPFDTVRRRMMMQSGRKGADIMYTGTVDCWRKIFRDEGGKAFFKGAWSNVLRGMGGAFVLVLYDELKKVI
UniProt Q9H0C2: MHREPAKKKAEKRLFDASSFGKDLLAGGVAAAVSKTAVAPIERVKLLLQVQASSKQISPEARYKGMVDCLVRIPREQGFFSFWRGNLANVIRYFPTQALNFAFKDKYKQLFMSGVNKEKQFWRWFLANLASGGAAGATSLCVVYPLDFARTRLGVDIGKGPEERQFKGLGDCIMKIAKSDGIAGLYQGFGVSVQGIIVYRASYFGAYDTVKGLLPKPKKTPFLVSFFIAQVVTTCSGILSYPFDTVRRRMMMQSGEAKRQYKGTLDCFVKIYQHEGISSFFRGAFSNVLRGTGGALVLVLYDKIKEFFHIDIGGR
UniProt Q8TBP6: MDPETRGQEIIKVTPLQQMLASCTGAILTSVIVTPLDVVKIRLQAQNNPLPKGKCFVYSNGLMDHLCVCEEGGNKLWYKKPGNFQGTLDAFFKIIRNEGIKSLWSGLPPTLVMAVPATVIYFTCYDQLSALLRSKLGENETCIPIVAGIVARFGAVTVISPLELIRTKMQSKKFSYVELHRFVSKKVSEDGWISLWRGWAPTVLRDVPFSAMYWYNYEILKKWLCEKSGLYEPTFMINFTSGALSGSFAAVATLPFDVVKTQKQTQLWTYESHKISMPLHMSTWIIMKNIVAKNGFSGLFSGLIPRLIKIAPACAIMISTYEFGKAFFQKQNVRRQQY
UniProt Q9C0K1: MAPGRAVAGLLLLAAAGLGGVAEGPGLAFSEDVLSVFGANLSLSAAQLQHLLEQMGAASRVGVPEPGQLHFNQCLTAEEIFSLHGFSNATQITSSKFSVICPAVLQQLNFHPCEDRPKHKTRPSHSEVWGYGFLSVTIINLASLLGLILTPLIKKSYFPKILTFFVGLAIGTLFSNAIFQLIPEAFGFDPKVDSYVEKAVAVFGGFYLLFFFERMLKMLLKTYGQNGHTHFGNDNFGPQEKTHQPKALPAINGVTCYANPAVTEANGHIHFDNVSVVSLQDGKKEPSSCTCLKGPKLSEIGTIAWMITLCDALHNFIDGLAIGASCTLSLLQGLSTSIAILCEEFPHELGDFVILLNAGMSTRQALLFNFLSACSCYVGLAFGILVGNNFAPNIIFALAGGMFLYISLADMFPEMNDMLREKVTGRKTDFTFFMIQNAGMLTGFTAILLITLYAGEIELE
UniProt Q9H1N7: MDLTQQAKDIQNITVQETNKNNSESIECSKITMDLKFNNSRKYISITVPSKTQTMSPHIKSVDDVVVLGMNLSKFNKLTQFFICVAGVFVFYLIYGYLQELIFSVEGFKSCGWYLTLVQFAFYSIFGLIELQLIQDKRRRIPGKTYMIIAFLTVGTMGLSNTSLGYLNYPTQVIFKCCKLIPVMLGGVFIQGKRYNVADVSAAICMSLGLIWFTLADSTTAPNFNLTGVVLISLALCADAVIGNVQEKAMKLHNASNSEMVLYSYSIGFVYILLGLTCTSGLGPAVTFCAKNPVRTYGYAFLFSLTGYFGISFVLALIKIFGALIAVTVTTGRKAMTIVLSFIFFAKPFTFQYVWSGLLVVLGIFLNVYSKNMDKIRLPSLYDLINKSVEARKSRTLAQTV
UniProt Q9UHW9: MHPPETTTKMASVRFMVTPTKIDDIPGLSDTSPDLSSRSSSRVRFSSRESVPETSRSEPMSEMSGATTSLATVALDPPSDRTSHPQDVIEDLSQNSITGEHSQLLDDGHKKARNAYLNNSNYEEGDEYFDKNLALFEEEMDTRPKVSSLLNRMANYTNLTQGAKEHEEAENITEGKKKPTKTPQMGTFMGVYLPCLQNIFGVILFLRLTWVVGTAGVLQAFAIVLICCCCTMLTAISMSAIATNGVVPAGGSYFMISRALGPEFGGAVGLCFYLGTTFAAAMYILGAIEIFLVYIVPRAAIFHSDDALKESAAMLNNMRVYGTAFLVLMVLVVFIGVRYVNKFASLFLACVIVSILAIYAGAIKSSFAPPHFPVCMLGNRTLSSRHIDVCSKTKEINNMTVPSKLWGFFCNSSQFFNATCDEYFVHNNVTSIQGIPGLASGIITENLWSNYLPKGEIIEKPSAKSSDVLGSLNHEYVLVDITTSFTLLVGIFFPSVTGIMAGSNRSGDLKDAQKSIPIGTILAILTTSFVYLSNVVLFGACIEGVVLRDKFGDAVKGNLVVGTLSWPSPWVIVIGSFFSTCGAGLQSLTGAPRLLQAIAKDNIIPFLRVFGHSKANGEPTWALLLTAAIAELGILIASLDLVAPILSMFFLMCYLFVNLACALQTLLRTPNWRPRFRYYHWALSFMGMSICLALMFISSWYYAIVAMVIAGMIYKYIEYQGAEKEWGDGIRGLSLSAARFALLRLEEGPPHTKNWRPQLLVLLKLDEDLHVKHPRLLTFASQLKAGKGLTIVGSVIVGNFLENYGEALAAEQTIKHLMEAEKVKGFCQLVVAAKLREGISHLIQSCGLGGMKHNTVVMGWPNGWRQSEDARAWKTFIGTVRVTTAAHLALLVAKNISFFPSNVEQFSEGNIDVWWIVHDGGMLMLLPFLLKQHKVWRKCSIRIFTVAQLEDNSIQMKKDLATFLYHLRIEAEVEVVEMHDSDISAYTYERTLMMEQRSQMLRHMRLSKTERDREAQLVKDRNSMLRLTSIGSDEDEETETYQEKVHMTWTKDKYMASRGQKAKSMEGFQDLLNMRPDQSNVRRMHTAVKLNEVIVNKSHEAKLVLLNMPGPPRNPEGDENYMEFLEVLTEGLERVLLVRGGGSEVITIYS
UniProt Q8NBI5: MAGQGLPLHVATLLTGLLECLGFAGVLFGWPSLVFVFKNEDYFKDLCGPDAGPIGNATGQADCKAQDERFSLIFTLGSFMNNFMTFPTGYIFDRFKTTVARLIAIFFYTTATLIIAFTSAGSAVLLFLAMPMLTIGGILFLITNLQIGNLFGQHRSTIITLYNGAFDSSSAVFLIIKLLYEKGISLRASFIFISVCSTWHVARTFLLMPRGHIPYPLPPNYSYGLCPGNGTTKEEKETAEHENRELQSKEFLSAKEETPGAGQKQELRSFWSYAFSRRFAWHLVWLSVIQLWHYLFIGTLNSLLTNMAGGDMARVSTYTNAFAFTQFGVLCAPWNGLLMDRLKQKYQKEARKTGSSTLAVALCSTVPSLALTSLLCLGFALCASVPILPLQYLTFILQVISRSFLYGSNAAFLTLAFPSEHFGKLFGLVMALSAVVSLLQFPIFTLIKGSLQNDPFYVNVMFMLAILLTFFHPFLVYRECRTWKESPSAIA
UniProt O60779: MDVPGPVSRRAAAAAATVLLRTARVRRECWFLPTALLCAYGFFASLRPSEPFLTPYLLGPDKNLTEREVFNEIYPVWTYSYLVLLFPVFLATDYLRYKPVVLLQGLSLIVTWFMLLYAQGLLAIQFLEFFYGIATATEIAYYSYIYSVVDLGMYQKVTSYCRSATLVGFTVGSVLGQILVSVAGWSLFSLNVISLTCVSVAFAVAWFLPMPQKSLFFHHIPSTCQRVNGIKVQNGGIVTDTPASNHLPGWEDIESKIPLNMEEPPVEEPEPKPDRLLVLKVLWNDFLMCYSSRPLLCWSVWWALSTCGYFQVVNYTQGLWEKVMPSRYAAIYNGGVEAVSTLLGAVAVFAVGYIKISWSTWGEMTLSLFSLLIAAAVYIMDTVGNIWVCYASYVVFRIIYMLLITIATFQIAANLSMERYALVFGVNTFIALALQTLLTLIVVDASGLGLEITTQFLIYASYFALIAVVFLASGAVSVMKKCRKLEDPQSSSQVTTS
UniProt P53794: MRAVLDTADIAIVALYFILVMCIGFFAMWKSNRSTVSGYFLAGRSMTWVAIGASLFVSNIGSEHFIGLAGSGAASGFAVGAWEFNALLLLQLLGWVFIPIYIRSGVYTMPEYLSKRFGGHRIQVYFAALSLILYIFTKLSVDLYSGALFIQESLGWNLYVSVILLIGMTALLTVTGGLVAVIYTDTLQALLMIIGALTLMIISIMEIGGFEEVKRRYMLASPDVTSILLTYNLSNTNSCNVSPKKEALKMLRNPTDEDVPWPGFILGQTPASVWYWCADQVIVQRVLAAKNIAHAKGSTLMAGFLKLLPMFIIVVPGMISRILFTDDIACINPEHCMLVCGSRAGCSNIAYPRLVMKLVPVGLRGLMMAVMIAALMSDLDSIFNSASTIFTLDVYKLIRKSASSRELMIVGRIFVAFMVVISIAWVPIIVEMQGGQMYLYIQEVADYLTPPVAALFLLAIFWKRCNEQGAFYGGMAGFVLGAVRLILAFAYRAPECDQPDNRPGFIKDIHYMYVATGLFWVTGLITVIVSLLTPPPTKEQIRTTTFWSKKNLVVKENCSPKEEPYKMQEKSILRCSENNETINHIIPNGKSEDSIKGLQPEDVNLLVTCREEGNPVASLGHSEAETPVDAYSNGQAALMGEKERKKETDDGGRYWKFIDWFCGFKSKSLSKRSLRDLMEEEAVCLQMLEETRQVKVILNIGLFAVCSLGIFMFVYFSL

Key:
Assay in all cases: log2 fold change, soluble protein after heating vs DMSO (PISA); higher = thermal stabilisation; K562 cells, 10 uM, 30 min; active = over 0.2 and 3.5 SD of the protein, either way, in both replicates (recomputed)
saracatinib = compound: CN1CCN(CCOc2cc(OC3CCOCC3)c3c(Nc4c(Cl)ccc5c4OCO5)ncnc3c2)CC1 [saracatinib]
Outline: (§1)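 Soluble protein was defined as the supernatant after 21,000xg for 90 min. It came from K562 cells at 2×10^6 cells/mL given 10 μM compound for 30 min, heated in aliquots for 3 min across 48°C-58°C, pooled, and extracted in PBS with 0.5% NP-40 at 4°C, and was quantified by TMTpro 16plex LC-MS/MS with equalised channel sums. Thermal stability against control samples, from duplicates, is reported as log2 fold change.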

sotrastaurin = compound: CN1CCN(c2nc(C3=C(c4c[nH]c5ccccc45)C(=O)NC3=O)c3ccccc3n2)CC1 [sotrastaurin]
Outline: as §1

alvocidib = compound: CN1CC[C@H](c2c(O)cc(O)c3c(=O)cc(-c4ccccc4Cl)oc23)[C@H](O)C1 [alvocidib]
Outline: as §1

Tubastatin A = compound: CN1CCc2c(c3ccccc3n2Cc2ccc(C(=O)NO)cc2)C1 [Tubastatin A]
Outline: as §1

[1] = compound: CNC(=O)C1=CC=CC=C1NC2=NC(=NC=C2Cl)NC3=C(C=C(C=C3)N4CCOCC4)OC
Outline: as §1

defactinib = compound: CNC(=O)c1ccc(Nc2ncc(C(F)(F)F)c(NCc3nccnc3N(C)S(C)(=O)=O)n2)cc1 [defactinib]
Outline: as §1

rucaparib = compound: CNCc1ccc(-c2[nH]c3cc(F)cc4c3c2CCNC4=O)cc1 [rucaparib]
Outline: as §1

[2] = compound: CNc1nc(-c2ccc3c(N)n[nH]c3c2)cc(N2C[C@@H](C(=O)NC3CCCCC3)CC[C@H]2C)n1
Outline: as §1

encorafenib = compound: COC(=O)N[C@@H](C)CNc1nccc(-c2cn(C(C)C)nc2-c2cc(Cl)cc(NS(C)(=O)=O)c2F)n1 [encorafenib]
Outline: as §1

[3] = compound: COC(=O)[C@H](CCSC)NC(=O)C1=C(C=C(C=C1)NC[C@H](CS)N)C2=CC=CC=C2
Outline: as §1

[4] = compound: COC1=CC=C(C=C1)CN2C=CC3=C2C=C(C=C3)C(=O)NO
Outline: as §1

filanesib = compound: CON(C)C(=O)N1N=C(c2cc(F)ccc2F)S[C@@]1(CCCN)c1ccccc1 [filanesib]
Outline: as §1

zotarolimus = compound: CO[C@H]1C[C@@H]2CC[C@@H](C)[C@@](O)(O2)C(=O)C(=O)N2CCCC[C@H]2C(=O)O[C@H]([C@H](C)C[C@@H]2CC[C@H](n3cnnn3)[C@H](OC)C2)CC(=O)[C@H](C)/C=C(\C)[C@@H](O)[C@@H](OC)C(=O)[C@H](C)C[C@H](C)/C=C/C=C/C=C/1C [zotarolimus]
Outline: as §1

idasanutlin = compound: COc1cc(C(=O)O)ccc1NC(=O)[C@@H]1N[C@@H](CC(C)(C)C)[C@](C#N)(c2ccc(Cl)cc2F)[C@H]1c1cccc(Cl)c1F [idasanutlin]
Outline: as §1

alisertib = compound: COc1cc(Nc2ncc3c(n2)-c2ccc(Cl)cc2C(c2c(F)cccc2OC)=NC3)ccc1C(=O)O [alisertib]
Outline: as §1

[5] = compound: COc1cc2nc(-c3cc(F)ccc3O)nc(N[C@@H]3CNC[C@H]3C(C)(C)O)c2cc1OC
Outline: as §1

gefitinib = compound: COc1cc2ncnc(Nc3ccc(F)c(Cl)c3)c2cc1OCCCN1CCOCC1 [gefitinib]
Outline: as §1

[6] = compound: COc1cccc2cc(-c3nc([C@H]4CC[C@H](C(=O)O)CC4)n4ncnc(N)c34)[nH]c12
Outline: as §1

lapatinib = compound: CS(=O)(=O)CCNCc1ccc(-c2ccc3ncnc(Nc4ccc(OCc5cccc(F)c5)c(Cl)c4)c3c2)o1 [lapatinib]
Outline: as §1

pictilisib = compound: CS(=O)(=O)N1CCN(Cc2cc3nc(-c4cccc5[nH]ncc45)nc(N4CCOCC4)c3s2)CC1 [pictilisib]
Outline: as §1

Measured: log2 fold change

SLC37A4 isoform 2 (UniProt O43826)
inactive: saracatinib 0.12 | sotrastaurin 0.004 | alvocidib 0.078 | Tubastatin A -0.017 | [1] -0.016 | defactinib -0.029 | rucaparib -0.047 | [2] -0.053 | encorafenib 0.008 | [3] 0.05 | [4] -0.081 | filanesib -0.028 | zotarolimus -0.012 | idasanutlin -0.028 | alisertib -0.04 | [5] -0.047 | gefitinib 0.031 | [6] 0.064 | lapatinib 0.068 | pictilisib -0.033

SLC25A37 (UniProt Q9NYZ2)
inactive: saracatinib 0.169 | sotrastaurin 0.12 | alvocidib 0.086 | Tubastatin A 0.044 | [1] -0.039 | defactinib -0.075 | rucaparib 0.05 | [2] 0.008 | encorafenib -0.057 | [3] 0.025 | [4] -0.093 | filanesib 0.009 | zotarolimus -0.012 | idasanutlin -0.021 | alisertib -0.127 | [5] -0.095 | gefitinib 0.048 | [6] 0.028 | lapatinib 0.039 | pictilisib -0.061

SLC4A1AP (UniProt Q9BWU0)
inactive: saracatinib -0.015 | sotrastaurin -0.025 | alvocidib -0.067 | Tubastatin A 0.027 | [1] 0.042 | defactinib -0.089 | rucaparib -0.019 | [2] -0.022 | encorafenib 0.054 | [3] 0 | [4] 0.014 | filanesib 0.081 | zotarolimus -0.011 | idasanutlin 0.006 | alisertib -0.028 | [5] 0.111 | gefitinib 0.022 | [6] -0.053 | lapatinib -0.03 | pictilisib -0.011

SLC25A17 (UniProt O43808)
inactive: saracatinib 0.165 | sotrastaurin -0.025 | alvocidib -0.004 | Tubastatin A 0.025 | [1] 0.001 | defactinib 0 | rucaparib -0.022 | [2] 0.02 | encorafenib 0.004 | [3] 0.042 | [4] 0.153 | filanesib -0.036 | zotarolimus 0.022 | idasanutlin -0.099 | alisertib -0.077 | [5] -0.083 | gefitinib -0.002 | [6] 0.034 | lapatinib 0.095 | pictilisib -0.107

SLC4A1 (UniProt P02730)
inactive: saracatinib 0.044 | sotrastaurin 0.097 | alvocidib -0.006 | Tubastatin A -0.053 | [1] 0.011 | defactinib -0.198 | rucaparib -0.002 | [2] -0.02 | encorafenib -0.063 | [3] 0.11 | [4] -0.051 | filanesib 0.001 | zotarolimus -0.03 | idasanutlin 0.051 | alisertib -0.114 | [5] 0.149 | gefitinib 0.021 | [6] 0.053 | lapatinib 0.003 | pictilisib 0.028

SLC25A26 (UniProt Q70HW3)
inactive: saracatinib 0.067 | sotrastaurin 0.013 | alvocidib 0.042 | Tubastatin A 0.205 | [1] 0.074 | defactinib -0.156 | rucaparib -0.001 | [2] -0.092 | encorafenib -0.009 | [3] 0.134 | [4] 0.191 | filanesib -0.041 | zotarolimus 0.008 | idasanutlin -0.104 | alisertib 0.089 | gefitinib -0.085 | [6] 0.039 | pictilisib 0.032

4 consecutive records from above:
SLC4A1AP (UniProt Q9BWU0)
inactive: saracatinib -0.015 | sotrastaurin -0.025 | alvocidib -0.067 | Tubastatin A 0.027 | [1] 0.042 | defactinib -0.089 | rucaparib -0.019 | [2] -0.022 | encorafenib 0.054 | [3] 0 | [4] 0.014 | filanesib 0.081 | zotarolimus -0.011 | idasanutlin 0.006 | alisertib -0.028 | [5] 0.111 | gefitinib 0.022 | [6] -0.053 | lapatinib -0.03 | pictilisib -0.011

SLC25A17 (UniProt O43808)
inactive: saracatinib 0.165 | sotrastaurin -0.025 | alvocidib -0.004 | Tubastatin A 0.025 | [1] 0.001 | defactinib 0 | rucaparib -0.022 | [2] 0.02 | encorafenib 0.004 | [3] 0.042 | [4] 0.153 | filanesib -0.036 | zotarolimus 0.022 | idasanutlin -0.099 | alisertib -0.077 | [5] -0.083 | gefitinib -0.002 | [6] 0.034 | lapatinib 0.095 | pictilisib -0.107

SLC4A1 (UniProt P02730)
inactive: saracatinib 0.044 | sotrastaurin 0.097 | alvocidib -0.006 | Tubastatin A -0.053 | [1] 0.011 | defactinib -0.198 | rucaparib -0.002 | [2] -0.02 | encorafenib -0.063 | [3] 0.11 | [4] -0.051 | filanesib 0.001 | zotarolimus -0.03 | idasanutlin 0.051 | alisertib -0.114 | [5] 0.149 | gefitinib 0.021 | [6] 0.053 | lapatinib 0.003 | pictilisib 0.028

SLC25A26 (UniProt Q70HW3)
inactive: saracatinib 0.067 | sotrastaurin 0.013 | alvocidib 0.042 | Tubastatin A 0.205 | [1] 0.074 | defactinib -0.156 | rucaparib -0.001 | [2] -0.092 | encorafenib -0.009 | [3] 0.134 | [4] 0.191 | filanesib -0.041 | zotarolimus 0.008 | idasanutlin -0.104 | alisertib 0.089 | gefitinib -0.085 | [6] 0.039 | pictilisib 0.032

Next results

SLC25A6 (UniProt P12236)
inactive: saracatinib 0.015 | sotrastaurin 0.061 | alvocidib -0.002 | Tubastatin A -0.032 | [1] 0 | defactinib 0.008 | rucaparib -0.041 | [2] -0.038 | encorafenib -0.008 | [3] -0.001 | [4] -0.035 | filanesib -0.04 | zotarolimus -0.038 | idasanutlin -0.03 | alisertib -0.007 | [5] 0.028 | gefitinib -0.003 | [6] 0.051 | lapatinib -0.026 | pictilisib 0.04

SLC25A31 (UniProt Q9H0C2)
inactive: saracatinib 0.08 | sotrastaurin 0.035 | alvocidib -0.039 | Tubastatin A -0.01 | [1] -0.038 | defactinib -0.006 | rucaparib -0.018 | [2] -0.026 | encorafenib -0.027 | [3] 0.027 | [4] 0.055 | filanesib -0.101 | zotarolimus -0.022 | idasanutlin -0.046 | alisertib 0.002 | [5] -0.009 | gefitinib 0.008 | [6] 0.053 | lapatinib 0.036 | pictilisib 0.002

SLC25A40 (UniProt Q8TBP6)
inactive: saracatinib 0.037 | sotrastaurin 0.072 | alvocidib 0.003 | Tubastatin A -0.01 | [1] -0.021 | defactinib 0.026 | rucaparib -0.057 | [2] 0.016 | encorafenib 0.028 | [3] 0.029 | [4] -0.013 | filanesib -0.07 | zotarolimus 0.002 | idasanutlin -0.028 | alisertib -0.086 | [5] -0.145 | gefitinib -0.026 | [6] 0.066 | lapatinib 0.047 | pictilisib -0.045

SLC39A8 (UniProt Q9C0K1)
inactive: saracatinib 0.093 | sotrastaurin 0.028 | alvocidib 0.017 | Tubastatin A -0.004 | [1] 0.033 | defactinib 0.034 | rucaparib -0.186 | [2] -0.07 | encorafenib -0.026 | [3] 0.05 | filanesib -0.117 | zotarolimus -0.018 | idasanutlin -0.046 | alisertib -0.05 | [5] 0.018 | gefitinib -0.057 | [6] 0.067 | lapatinib -0.047 | pictilisib -0.142

SLC35B3 (UniProt Q9H1N7)
inactive: saracatinib 0.139 | sotrastaurin 0.093 | alvocidib -0.224 | Tubastatin A 0.093 | [1] 0.038 | defactinib -0.015 | rucaparib -0.052 | [2] -0.04 | encorafenib 0.017 | [3] -0.161 | [4] -0.042 | filanesib 0.012 | zotarolimus 0.127 | idasanutlin -0.059 | alisertib -0.25 | gefitinib -0.108 | [6] -0.159

SLC12A6 isoform 2 (UniProt Q9UHW9)
inactive: saracatinib 0.062 | sotrastaurin 0.028 | alvocidib 0.008 | Tubastatin A -0.034 | [1] 0.023 | defactinib -0.059 | rucaparib -0.006 | [2] -0.054 | encorafenib 0 | [3] 0.002 | [4] 0.127 | filanesib -0.052 | zotarolimus 0.002 | idasanutlin 0.02 | alisertib -0.042 | [5] -0.031 | gefitinib -0.047 | [6] 0.037 | lapatinib 0.035 | pictilisib -0.028

SLC43A3 isoform 2 (UniProt Q8NBI5)
inactive: saracatinib 0.02 | sotrastaurin 0.033 | alvocidib -0.012 | Tubastatin A 0.052 | [1] -0.047 | defactinib 0.056 | rucaparib -0.107 | [2] -0.011 | encorafenib 0.052 | [3] 0.044 | [4] -0.003 | filanesib 0.026 | zotarolimus -0.026 | idasanutlin 0.072 | alisertib -0.071 | [5] 0.045 | gefitinib 0.025 | [6] 0.105 | lapatinib -0.017 | pictilisib 0.015

SLC19A2 (UniProt O60779)
inactive: saracatinib 0.163 | sotrastaurin -0.179 | alvocidib 0.003 | Tubastatin A 0.078 | [1] -0.269 | defactinib -0.096 | rucaparib 0.014 | [2] -0.061 | encorafenib 0.168 | [3] -0.083 | [4] -0.214 | filanesib -0.073 | zotarolimus 0.072 | idasanutlin 0.019 | [5] 0.032 | gefitinib 0.083 | lapatinib -0.043

SLC5A3 (UniProt P53794)
inactive: saracatinib 0.049 | sotrastaurin 0.043 | alvocidib 0.03 | Tubastatin A -0.021 | [1] 0.004 | defactinib -0.088 | rucaparib -0.063 | [2] 0.075 | encorafenib -0.027 | [3] 0.024 | [4] 0.05 | filanesib 0.037 | zotarolimus -0.03 | idasanutlin 0.007 | alisertib -0.122 | [5] 0.042 | gefitinib 0.035 | [6] 0.116 | lapatinib -0.105 | pictilisib 0.017
